Source: the supplement of paper PMC7666118
Some of the results follow.

By UniProt entry, the sequences of proteins in these tests, tags left out. Where a name states a change or a piece, a line headed by the entry shows the natural chain unless it says otherwise.
UniProt Q96HE7: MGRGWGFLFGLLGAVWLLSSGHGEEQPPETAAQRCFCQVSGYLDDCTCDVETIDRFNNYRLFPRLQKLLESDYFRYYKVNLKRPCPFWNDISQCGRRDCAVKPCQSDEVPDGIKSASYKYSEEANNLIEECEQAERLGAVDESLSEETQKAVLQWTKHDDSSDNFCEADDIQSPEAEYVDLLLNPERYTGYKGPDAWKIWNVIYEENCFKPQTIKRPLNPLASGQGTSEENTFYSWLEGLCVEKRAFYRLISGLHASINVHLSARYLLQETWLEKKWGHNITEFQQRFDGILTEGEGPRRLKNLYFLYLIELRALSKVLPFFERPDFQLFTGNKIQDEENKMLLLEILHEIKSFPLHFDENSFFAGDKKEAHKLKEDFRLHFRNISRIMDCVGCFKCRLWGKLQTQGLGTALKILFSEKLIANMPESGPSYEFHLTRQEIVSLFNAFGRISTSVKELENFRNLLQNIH
UniProt Q8IV48: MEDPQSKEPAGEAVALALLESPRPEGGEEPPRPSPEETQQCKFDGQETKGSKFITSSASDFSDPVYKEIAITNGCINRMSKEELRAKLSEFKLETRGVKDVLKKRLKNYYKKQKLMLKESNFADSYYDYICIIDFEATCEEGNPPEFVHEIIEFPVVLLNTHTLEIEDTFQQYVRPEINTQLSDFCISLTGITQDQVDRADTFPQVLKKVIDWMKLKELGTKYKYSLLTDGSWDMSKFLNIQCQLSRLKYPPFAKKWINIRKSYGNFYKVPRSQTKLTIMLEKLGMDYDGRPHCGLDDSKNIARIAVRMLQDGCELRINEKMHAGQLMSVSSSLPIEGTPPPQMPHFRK
UniProt Q99613, whole entry: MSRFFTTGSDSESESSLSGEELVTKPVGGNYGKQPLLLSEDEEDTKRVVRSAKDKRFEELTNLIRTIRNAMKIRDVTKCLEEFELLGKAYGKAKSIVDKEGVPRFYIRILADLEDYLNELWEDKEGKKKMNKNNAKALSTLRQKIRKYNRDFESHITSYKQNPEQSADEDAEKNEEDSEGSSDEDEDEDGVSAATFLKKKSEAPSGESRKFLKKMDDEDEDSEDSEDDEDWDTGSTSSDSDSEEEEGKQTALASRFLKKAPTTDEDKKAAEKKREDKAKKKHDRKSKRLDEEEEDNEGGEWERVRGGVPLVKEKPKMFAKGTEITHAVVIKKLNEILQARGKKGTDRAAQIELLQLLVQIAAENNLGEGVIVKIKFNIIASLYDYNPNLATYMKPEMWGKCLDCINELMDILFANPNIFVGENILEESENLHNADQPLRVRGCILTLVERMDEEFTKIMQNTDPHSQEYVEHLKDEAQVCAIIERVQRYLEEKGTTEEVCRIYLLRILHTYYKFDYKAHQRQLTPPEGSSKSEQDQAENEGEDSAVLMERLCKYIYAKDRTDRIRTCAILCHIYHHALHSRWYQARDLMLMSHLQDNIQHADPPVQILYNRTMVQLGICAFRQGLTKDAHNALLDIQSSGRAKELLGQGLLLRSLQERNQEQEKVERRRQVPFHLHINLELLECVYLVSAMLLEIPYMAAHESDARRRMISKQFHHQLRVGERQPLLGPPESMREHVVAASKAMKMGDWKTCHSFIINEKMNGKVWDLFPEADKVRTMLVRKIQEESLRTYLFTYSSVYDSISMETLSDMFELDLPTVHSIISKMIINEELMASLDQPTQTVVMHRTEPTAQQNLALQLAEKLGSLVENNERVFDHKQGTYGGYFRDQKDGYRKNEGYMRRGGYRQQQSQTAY
UniProt Q99543: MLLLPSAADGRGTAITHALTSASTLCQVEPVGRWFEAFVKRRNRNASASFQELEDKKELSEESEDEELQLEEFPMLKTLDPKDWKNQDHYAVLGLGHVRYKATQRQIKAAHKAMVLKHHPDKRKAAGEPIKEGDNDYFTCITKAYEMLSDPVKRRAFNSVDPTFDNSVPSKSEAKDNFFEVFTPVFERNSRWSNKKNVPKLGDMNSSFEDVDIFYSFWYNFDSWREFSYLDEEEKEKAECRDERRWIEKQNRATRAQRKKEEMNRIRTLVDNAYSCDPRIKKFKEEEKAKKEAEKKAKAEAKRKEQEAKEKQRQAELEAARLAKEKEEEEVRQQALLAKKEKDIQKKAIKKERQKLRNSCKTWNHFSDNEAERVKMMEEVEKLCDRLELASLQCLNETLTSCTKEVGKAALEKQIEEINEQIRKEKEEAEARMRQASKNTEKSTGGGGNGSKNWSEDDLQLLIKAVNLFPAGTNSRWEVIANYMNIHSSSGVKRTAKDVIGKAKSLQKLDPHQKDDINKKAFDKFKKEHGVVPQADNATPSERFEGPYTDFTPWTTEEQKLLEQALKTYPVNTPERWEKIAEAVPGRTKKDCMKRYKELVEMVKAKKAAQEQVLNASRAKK
UniProt Q6IA86: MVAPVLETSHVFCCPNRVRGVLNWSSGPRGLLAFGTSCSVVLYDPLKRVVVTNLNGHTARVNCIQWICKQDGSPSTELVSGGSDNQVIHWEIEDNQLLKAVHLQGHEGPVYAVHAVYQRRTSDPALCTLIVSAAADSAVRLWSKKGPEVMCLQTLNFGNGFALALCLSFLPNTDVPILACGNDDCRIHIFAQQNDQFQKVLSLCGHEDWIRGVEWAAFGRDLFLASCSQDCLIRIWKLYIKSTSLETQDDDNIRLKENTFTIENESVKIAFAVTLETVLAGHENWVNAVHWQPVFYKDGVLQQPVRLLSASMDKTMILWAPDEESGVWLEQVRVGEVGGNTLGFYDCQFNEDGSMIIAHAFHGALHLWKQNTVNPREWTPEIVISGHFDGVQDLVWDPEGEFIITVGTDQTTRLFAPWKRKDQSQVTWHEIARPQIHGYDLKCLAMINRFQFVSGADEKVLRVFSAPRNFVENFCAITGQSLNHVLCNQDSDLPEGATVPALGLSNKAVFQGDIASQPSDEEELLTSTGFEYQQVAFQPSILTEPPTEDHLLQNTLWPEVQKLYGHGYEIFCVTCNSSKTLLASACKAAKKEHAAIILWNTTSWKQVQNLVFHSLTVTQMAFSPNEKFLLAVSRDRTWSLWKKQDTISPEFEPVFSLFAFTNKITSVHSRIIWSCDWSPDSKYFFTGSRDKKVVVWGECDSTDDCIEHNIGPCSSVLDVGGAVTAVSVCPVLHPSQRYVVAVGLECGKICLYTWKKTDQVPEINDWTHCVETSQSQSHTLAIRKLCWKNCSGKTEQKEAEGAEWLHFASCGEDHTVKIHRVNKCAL
UniProt Q02413: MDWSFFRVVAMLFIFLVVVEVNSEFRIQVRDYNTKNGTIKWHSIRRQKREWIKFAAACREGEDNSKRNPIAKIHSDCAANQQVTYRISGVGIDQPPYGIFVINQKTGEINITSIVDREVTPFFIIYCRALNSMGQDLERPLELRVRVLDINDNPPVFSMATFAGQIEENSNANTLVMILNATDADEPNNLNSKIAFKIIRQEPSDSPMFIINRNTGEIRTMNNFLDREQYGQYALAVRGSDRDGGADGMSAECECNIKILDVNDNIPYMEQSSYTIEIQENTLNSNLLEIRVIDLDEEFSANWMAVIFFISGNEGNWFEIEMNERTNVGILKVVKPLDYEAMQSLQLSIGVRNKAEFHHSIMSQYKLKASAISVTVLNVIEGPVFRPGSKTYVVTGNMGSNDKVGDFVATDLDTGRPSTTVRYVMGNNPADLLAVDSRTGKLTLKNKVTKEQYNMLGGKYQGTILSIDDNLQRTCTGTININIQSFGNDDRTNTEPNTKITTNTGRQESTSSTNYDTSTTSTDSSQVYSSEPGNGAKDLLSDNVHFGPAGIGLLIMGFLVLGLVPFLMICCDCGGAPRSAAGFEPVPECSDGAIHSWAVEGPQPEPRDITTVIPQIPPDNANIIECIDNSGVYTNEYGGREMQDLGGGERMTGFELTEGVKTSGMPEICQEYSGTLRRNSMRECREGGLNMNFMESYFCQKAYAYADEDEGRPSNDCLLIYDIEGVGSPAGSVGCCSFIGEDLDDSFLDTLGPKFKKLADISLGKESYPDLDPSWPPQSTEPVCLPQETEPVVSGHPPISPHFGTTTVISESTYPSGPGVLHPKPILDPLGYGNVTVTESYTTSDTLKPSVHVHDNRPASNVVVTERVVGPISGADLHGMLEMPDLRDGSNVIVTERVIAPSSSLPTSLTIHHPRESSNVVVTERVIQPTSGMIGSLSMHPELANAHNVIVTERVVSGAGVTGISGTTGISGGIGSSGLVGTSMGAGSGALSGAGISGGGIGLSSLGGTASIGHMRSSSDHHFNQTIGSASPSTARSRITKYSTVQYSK
UniProt Q7L775: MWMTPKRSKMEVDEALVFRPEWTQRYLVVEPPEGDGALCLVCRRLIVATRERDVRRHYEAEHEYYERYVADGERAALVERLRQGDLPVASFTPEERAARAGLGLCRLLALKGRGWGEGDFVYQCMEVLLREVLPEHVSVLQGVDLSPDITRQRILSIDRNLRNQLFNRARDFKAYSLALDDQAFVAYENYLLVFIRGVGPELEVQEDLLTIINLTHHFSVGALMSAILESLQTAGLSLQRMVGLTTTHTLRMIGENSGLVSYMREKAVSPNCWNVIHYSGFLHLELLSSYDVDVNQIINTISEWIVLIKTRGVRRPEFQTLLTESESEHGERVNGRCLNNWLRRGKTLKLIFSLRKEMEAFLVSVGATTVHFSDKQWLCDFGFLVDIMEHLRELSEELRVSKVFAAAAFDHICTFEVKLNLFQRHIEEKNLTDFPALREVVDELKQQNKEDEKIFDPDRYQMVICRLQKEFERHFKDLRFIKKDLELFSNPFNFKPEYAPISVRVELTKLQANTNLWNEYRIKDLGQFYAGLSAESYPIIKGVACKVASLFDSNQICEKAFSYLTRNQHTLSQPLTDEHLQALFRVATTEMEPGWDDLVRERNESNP
UniProt P06733, whole entry: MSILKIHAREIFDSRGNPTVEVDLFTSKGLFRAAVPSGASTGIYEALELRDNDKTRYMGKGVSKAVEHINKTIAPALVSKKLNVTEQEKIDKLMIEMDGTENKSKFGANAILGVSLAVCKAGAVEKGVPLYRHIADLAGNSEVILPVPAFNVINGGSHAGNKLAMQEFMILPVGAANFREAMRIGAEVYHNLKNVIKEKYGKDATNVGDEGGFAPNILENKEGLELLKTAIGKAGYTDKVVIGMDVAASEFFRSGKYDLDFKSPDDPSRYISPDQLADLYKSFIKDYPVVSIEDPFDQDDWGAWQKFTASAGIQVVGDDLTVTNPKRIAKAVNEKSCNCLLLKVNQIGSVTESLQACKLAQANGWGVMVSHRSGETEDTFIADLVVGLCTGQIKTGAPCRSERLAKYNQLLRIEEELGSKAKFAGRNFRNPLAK
UniProt Q99615: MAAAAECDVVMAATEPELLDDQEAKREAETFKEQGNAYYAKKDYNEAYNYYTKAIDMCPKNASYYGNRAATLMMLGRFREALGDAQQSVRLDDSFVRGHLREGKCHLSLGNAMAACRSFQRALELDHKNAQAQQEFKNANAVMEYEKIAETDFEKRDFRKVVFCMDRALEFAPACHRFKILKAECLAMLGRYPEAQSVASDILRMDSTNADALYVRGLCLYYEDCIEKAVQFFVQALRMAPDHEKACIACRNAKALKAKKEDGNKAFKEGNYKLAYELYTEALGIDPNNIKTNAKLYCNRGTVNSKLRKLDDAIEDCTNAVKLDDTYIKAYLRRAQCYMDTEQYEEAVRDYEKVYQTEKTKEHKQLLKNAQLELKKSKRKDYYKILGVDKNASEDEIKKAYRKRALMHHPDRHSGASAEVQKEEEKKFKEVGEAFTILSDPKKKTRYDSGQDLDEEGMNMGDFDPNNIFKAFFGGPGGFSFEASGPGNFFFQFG

Compound: COc1ccc(Cn2ccc3ccc(C(=O)NO)cc32)cc1
Experiment: dose-dependent thermal stabilisation call (2D-TPP, DLPTP, 10% FDR) (binary (1 = stabilised)); higher = stabilised by the compound
Conditions: system: HL-60 intact cells; concentration range 0.04-10 µM

Question: How did the “dose-dependent thermal stabilisation call” value turn out when ERO1L (UniProt Q96HE7) was run?
Answer: inactive: 0

Question: With ERI1 (UniProt Q8IV48) as the target, how does the “dose-dependent thermal stabilisation call” value read?
Answer: inactive: 0

Question: With EIF3C (UniProt Q99613) as the target, how does the “dose-dependent thermal stabilisation call” value read?
Answer: inactive: 0

Question: For DNAJC2 (UniProt Q99543), which “dose-dependent thermal stabilisation call” value is on record?
Answer: inactive: 0

Question: For ELP2 (UniProt Q6IA86), which “dose-dependent thermal stabilisation call” value is on record?
Answer: inactive: 0

Question: How did the “dose-dependent thermal stabilisation call” value turn out when DSG1 (UniProt Q02413) was run?
Answer: inactive: 0

Question: EPM2AIP1 (UniProt Q7L775) was tested. Which “dose-dependent thermal stabilisation call” value did it give?
Answer: inactive: 0

Question: How did the “dose-dependent thermal stabilisation call” value turn out when ENO1 (UniProt P06733) was run?
Answer: inactive: 0

Question: For DNAJC7 (UniProt Q99615), which “dose-dependent thermal stabilisation call” value is on record?
Answer: inactive: 0
